Results taken from the supplement of paper PMC10849652.
Some of the results follow.

The chains behind the UniProt entries cited, without tags or fusion partners. Where a name states a change or a piece, a line headed by the entry shows the natural chain unless it says otherwise.
UniProt O00303, whole entry, looked up: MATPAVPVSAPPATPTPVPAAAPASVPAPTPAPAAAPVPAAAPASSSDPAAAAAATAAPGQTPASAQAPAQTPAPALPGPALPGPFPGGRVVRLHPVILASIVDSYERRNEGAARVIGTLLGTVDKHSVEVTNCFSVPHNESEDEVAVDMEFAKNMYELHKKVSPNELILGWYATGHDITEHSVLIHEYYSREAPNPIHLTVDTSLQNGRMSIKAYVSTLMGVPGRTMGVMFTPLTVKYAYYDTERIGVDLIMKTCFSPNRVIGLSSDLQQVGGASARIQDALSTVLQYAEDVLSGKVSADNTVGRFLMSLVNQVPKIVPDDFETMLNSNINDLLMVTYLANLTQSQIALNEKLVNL
UniProt Q9P0I2: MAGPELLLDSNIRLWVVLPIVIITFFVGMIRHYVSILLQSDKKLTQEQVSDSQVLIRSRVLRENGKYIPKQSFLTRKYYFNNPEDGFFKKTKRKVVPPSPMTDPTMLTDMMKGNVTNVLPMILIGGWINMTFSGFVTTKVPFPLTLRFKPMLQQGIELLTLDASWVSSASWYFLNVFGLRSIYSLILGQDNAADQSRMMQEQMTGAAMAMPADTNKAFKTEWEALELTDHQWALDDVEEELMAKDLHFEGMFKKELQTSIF
UniProt Q92556, whole entry, looked up: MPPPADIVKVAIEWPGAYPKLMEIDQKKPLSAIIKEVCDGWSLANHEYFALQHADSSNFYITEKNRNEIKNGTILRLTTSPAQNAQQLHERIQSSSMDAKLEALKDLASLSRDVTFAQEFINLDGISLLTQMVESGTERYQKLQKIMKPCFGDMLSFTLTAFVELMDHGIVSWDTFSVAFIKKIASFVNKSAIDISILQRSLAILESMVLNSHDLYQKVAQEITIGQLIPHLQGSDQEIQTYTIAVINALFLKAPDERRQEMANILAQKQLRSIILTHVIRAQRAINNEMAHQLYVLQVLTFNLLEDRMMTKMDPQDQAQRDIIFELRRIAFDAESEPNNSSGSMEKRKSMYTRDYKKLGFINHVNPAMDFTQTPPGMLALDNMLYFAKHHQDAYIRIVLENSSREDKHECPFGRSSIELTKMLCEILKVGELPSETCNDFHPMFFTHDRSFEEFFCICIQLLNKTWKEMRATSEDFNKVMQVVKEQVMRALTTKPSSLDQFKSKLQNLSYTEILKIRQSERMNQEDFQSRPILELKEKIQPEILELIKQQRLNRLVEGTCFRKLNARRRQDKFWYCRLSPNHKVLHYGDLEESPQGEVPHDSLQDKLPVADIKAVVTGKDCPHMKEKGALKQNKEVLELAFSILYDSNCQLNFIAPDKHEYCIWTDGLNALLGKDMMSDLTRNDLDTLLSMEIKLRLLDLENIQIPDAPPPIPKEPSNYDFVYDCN
UniProt P55884, whole entry, looked up: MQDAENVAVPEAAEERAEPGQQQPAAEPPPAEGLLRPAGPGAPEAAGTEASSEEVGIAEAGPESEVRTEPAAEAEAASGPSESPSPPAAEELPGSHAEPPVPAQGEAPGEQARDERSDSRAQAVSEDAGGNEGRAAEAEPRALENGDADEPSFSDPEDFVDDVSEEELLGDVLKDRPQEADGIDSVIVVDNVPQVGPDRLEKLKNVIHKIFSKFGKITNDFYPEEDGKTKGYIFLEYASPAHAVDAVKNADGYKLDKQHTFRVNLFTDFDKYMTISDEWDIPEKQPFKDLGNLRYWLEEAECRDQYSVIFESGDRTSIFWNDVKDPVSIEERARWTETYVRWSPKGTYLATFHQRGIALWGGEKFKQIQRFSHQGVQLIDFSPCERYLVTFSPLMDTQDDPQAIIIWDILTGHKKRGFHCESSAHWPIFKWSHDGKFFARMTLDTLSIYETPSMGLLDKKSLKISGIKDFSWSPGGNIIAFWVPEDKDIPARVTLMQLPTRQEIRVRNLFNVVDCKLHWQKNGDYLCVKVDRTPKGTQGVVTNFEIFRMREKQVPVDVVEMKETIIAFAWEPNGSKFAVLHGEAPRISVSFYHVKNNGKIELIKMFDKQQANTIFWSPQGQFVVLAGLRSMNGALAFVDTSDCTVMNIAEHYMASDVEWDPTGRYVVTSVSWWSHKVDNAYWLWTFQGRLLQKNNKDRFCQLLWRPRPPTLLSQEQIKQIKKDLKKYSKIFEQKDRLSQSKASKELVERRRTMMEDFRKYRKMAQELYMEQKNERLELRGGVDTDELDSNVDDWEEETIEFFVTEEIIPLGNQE
UniProt Q8IV48: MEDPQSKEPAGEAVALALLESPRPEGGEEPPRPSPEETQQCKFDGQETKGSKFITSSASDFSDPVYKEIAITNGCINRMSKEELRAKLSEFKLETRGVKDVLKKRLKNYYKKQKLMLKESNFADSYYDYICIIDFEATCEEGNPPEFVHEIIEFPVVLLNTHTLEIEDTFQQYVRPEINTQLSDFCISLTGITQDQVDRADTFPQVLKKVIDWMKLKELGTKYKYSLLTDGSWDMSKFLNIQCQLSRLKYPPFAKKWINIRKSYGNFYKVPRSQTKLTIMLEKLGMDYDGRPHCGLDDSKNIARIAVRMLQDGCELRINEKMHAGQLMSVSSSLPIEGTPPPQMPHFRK
UniProt Q15723: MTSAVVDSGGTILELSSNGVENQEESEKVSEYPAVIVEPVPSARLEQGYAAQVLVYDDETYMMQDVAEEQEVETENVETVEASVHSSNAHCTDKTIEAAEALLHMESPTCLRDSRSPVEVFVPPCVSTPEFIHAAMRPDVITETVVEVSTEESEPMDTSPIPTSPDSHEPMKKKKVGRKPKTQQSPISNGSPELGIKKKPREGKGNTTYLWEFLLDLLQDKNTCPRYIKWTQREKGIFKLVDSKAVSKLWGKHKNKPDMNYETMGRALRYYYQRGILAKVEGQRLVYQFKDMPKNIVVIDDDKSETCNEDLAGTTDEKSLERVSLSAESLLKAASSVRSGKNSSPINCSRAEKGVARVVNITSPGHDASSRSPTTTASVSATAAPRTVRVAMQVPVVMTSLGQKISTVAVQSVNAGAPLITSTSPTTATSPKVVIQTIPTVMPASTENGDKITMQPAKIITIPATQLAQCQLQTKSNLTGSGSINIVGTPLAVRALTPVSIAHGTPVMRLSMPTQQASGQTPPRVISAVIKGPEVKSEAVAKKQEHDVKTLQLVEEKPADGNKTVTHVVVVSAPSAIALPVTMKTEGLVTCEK
UniProt P84090, whole entry, looked up: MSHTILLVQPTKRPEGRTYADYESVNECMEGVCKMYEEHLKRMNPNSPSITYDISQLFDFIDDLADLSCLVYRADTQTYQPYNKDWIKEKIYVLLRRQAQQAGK
UniProt Q9UBC2: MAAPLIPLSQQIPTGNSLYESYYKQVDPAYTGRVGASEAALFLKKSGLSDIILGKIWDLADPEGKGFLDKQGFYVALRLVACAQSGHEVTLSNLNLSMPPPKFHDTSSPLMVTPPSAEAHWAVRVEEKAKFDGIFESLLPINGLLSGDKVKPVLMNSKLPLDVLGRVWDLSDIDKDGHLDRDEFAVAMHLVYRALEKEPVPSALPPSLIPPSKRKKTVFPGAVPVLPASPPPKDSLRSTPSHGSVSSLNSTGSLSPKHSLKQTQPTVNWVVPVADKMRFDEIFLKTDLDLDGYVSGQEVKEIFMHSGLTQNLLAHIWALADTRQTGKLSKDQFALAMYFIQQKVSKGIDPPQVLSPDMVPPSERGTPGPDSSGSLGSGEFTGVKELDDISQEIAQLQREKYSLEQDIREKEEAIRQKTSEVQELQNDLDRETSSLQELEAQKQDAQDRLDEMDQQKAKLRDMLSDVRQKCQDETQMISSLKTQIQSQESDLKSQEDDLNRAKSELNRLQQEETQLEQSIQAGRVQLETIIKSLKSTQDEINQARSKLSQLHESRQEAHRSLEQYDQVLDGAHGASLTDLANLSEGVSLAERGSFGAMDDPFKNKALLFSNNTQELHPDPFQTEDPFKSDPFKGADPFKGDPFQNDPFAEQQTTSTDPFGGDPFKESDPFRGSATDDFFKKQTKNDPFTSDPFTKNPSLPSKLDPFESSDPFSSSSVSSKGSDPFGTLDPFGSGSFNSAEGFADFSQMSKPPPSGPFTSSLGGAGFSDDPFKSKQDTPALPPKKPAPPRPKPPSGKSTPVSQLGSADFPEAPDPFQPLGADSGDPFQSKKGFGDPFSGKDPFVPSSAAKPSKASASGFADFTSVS
UniProt Q92889: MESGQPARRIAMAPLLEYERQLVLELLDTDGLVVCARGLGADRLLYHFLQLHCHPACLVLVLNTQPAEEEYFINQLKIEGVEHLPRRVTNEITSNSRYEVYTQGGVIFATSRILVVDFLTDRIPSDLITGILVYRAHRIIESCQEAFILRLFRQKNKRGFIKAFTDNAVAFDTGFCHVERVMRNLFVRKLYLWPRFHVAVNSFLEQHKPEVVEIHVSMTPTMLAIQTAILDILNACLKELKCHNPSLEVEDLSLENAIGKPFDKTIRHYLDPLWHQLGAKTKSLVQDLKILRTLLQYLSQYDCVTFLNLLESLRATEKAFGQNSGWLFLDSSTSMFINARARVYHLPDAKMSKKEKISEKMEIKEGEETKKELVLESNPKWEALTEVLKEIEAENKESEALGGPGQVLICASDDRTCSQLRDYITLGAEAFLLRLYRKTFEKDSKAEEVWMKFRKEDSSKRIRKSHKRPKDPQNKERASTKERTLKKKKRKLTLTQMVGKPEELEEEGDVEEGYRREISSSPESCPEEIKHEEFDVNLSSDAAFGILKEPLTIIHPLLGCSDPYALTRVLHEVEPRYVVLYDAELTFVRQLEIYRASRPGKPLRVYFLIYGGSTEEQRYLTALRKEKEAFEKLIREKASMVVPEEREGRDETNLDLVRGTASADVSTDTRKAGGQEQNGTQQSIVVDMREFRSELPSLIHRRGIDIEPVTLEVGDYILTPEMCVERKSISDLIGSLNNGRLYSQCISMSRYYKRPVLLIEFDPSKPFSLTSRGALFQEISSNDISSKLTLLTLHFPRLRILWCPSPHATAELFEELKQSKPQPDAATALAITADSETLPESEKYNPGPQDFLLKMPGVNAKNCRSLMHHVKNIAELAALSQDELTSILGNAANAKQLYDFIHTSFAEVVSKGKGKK
UniProt O75356: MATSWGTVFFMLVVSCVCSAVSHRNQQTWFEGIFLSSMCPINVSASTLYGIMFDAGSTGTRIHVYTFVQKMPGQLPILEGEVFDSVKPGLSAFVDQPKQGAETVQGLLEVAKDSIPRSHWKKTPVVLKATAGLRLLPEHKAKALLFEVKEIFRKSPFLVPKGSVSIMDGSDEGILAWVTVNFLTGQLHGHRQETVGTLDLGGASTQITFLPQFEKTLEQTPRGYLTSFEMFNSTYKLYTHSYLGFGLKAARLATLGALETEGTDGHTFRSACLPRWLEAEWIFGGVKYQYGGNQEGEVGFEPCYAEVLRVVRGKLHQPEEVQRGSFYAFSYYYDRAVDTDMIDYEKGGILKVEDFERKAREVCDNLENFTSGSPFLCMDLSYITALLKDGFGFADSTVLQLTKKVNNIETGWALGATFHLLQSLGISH
UniProt Q14249: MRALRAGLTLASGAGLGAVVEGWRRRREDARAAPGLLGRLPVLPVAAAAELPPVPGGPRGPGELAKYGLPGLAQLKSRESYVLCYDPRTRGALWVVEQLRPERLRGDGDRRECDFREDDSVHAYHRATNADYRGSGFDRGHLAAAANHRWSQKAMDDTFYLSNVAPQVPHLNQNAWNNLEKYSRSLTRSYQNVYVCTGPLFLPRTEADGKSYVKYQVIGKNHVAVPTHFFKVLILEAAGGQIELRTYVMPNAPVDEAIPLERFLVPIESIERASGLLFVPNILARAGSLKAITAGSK
UniProt Q9Y6I3: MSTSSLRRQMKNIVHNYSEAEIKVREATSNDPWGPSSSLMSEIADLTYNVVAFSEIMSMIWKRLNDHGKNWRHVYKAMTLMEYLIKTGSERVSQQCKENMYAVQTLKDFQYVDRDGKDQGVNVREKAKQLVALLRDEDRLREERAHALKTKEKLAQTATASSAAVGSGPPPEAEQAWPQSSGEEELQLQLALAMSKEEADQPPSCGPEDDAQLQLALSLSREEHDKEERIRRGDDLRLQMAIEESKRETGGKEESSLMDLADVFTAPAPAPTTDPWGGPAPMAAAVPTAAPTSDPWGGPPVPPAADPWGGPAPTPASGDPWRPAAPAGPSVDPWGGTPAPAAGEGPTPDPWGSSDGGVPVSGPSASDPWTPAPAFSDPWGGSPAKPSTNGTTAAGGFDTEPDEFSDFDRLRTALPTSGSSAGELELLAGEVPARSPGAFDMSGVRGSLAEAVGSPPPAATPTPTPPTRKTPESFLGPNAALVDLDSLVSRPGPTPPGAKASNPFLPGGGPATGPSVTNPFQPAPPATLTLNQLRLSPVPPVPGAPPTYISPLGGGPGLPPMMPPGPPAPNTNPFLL
UniProt P50402: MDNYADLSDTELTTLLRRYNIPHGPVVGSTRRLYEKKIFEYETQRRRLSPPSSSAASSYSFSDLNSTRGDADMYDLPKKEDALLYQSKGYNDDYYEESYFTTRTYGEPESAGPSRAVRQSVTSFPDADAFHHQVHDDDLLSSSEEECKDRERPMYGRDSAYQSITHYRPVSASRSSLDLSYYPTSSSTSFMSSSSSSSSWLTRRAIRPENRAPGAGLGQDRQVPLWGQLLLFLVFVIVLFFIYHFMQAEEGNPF

The targets below were run with CC[C@@H]1C(=O)N(C)c2cnc(Nc3ccc(C(=O)N[C@H]4CC[C@H](N5CCN(CC6CC6)CC5)CC4)cc3OC)nc2N1C(C)C [volasertib] (assay: log2 fold change, soluble protein after heating vs DMSO (PISA); higher = thermal stabilisation; K562 lysate, 10 uM; active = over 0.2 and 3.5 SD of the protein, either way, in both replicates (recomputed)).
Procedure, shortened: (§1)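 Pellets of K562 cells were dounce-homogenised in PBS pH 7.4 with 1 mM MgCl2, and the crude extract was held at 1 mg/mL protein for a 30 min treatment with 10 μM compound. Aliquots were heated for 3 min over 48°C-58°C and pooled before NP-40 was added to 0.5% at 4°C. The supernatant from 21,000xg for 90 min was quantified by TMTpro 16plex LC-MS/MS with channel sums equalised. Values are reported from duplicates as log-two fold change in thermal stability relative to solvent controls.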

Row | Target | log2 fold change
1 | EIF3G (UniProt K7ER90) | inactive: -0.038
2 | EP300 (UniProt Q09472) | inactive: -0.042
3 | ERGIC2 (UniProt Q96RQ1) | inactive: -0.028
4 | ERAL1 (UniProt O75616) | inactive: -0.046
5 | EIF3F (UniProt O00303) | inactive: -0.039
6 | EMC3 (UniProt Q9P0I2) | inactive: -0.018
7 | ELMO1 (UniProt Q92556) | inactive: -0.018
8 | ERC1 (UniProt X6RLX0) | inactive: 0
9 | EIF3B isoform 2 (UniProt P55884) | inactive: -0.021
10 | ERI1 (UniProt Q8IV48) | inactive: -0.023
11 | ENY2 (UniProt Q9NPA8) | inactive: 0.033
12 | EMC7 (UniProt Q9NPA0) | inactive: 0
13 | EMC6 (UniProt Q9BV81) | inactive: -0.011
14 | EIF2D (UniProt P41214) | inactive: -0.052
15 | EIF2S3 (UniProt P41091) | inactive: 0.007
16 | ELF2 (UniProt Q15723) | inactive: 0.042
17 | ERH (UniProt P84090) | inactive: 0.046
18 | EPHX2 (UniProt P34913) | inactive: 0.041

Row | Target | log2 fold change
19 | EPS15L1 isoform 2 (UniProt Q9UBC2) | inactive: 0.022
20 | ERCC4 (UniProt Q92889) | inactive: -0.006
21 | ERCC3 (UniProt P19447) | inactive: 0.004
22 | EPPK1 (UniProt P58107) | inactive: -0.008
23 | EIF6 (UniProt P56537) | inactive: 0.001
24 | ENSA isoform 3 (UniProt O43768) | inactive: 0.025
25 | EMP3 (UniProt P54852) | inactive: 0.124
26 | EIF4E isoform 2 (UniProt P06730) | inactive: -0.013
27 | ENTPD5 (UniProt O75356) | inactive: -0.02
28 | EPRS (UniProt P07814) | inactive: -0.068
29 | EIF2B4 isoform 2 (UniProt Q9UI10) | inactive: -0.017
30 | EMC4 (UniProt Q5J8M3) | inactive: -0.006
31 | ELP2 isoform 6 (UniProt Q6IA86) | inactive: -0.007
32 | ENGASE (UniProt Q8NFI3) | inactive: -0.035
33 | ENPP3 (UniProt O14638) | inactive: 0.024
34 | ENDOG (UniProt Q14249) | inactive: -0.014
35 | EPN1 (UniProt Q9Y6I3) | inactive: -0.026
36 | EMD (UniProt P50402) | inactive: -0.017

What follows are targets tested with CCn1c(C(=O)N(C2CC2)C2CC2)cc2c3c(ncn3C)c(Nc3cc(C)n(C)n3)nc21 in the same assay as above.
Procedure, shortened: as §1

Row | Target | log2 fold change
37 | EIF3G (UniProt K7ER90) | inactive: 0.112
38 | EP300 (UniProt Q09472) | inactive: -0.009
39 | ERGIC2 (UniProt Q96RQ1) | inactive: 0.001
40 | ERAL1 (UniProt O75616) | inactive: 0.059
41 | EIF3F (UniProt O00303) | inactive: 0.018
42 | EMC3 (UniProt Q9P0I2) | inactive: -0.041
43 | ELMO1 (UniProt Q92556) | inactive: 0.039
44 | ERC1 (UniProt X6RLX0) | inactive: 0.019
45 | EIF3B isoform 2 (UniProt P55884) | inactive: 0.008
46 | ERI1 (UniProt Q8IV48) | inactive: -0.008
47 | ENY2 (UniProt Q9NPA8) | inactive: 0.048
48 | EMC7 (UniProt Q9NPA0) | inactive: -0.023
49 | EMC6 (UniProt Q9BV81) | inactive: -0.119
50 | EIF2D (UniProt P41214) | inactive: 0.001
51 | EIF2S3 (UniProt P41091) | inactive: -0.025
52 | ELF2 (UniProt Q15723) | inactive: 0.031
53 | ERH (UniProt P84090) | inactive: 0.006
54 | EPHX2 (UniProt P34913) | inactive: -0.004

Row | Target | log2 fold change
55 | EPS15L1 isoform 2 (UniProt Q9UBC2) | inactive: 0.002
56 | ERCC4 (UniProt Q92889) | inactive: 0.004
57 | ERCC3 (UniProt P19447) | inactive: 0.016
58 | EPPK1 (UniProt P58107) | inactive: 0.063
59 | EIF6 (UniProt P56537) | inactive: -0.044
60 | ENSA isoform 3 (UniProt O43768) | inactive: 0.033
61 | EMP3 (UniProt P54852) | inactive: -0.112
62 | EIF4E isoform 2 (UniProt P06730) | inactive: 0.061
63 | ENTPD5 (UniProt O75356) | inactive: 0.082
64 | EPRS (UniProt P07814) | inactive: 0.024
65 | EIF2B4 isoform 2 (UniProt Q9UI10) | inactive: -0.004
66 | EMC4 (UniProt Q5J8M3) | inactive: 0.029
67 | ELP2 isoform 6 (UniProt Q6IA86) | inactive: -0.021
68 | ENGASE (UniProt Q8NFI3) | inactive: -0.031
69 | ENPP3 (UniProt O14638) | inactive: -0.034
70 | ENDOG (UniProt Q14249) | inactive: -0.019
71 | EPN1 (UniProt Q9Y6I3) | inactive: -0.008
72 | EMD (UniProt P50402) | inactive: 0.057
